Assay results taken from PubChem BioAssay AID493014 (National Center for Advancing Translational Sciences (NCATS), 2011).
Among all 340,000 compounds or so, about 170 (0.05%) were called active. Inconclusive means that the source gave no clear call. Such entries were picked first, then a sample of the others. Calls come from the whole dose curve; as a rule, active = well fitted inhibition curve with a large enough effect in the signal ratio, with a control signal flat (not every such curve was filed as active); inconclusive = small, poorly fitted or top-dose-only effect, or effect the other way, or a change in a side signal; inactive = flat fitted curve, though single readings scatter; the % refers to the signal ratio. A potency beside an inconclusive call is a rough fit, not a confirmed value.
Potency is the fitted concentration of half-maximal effect.

Assay: qHTS Assay to Find Inhibitors of Chronic Active B-Cell Receptor Signaling;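 for activity change, negative = inhibition: plate controls were basal doxycycline-induced cells for no effect and cells given 10 µM MG132 for full effect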
Conditions: ABC-DLBCL IkBa-CBG/CBR reporter, luminescence ratio (green luciferase fused to IkBa over red control in TMD8 lymphoma cells), 4 h; activity change, negative = inhibition: at 46.1 µM (top of the series) unless noted
How it was run: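 Doxycycline induced both beetle luciferases in TMD8 lymphoma cells; IKK-driven degradation limits the IkappaBalpha-fused green signal, while red luminescence normalises for cell number and nonspecific effects. Compounds tested up to 46 uM, 4 hrs.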
For CN1C(=O)c2ccccc2N(C)C1c1ccc2c(c1)OCO2 (stereo unspecified), the activity change, negative = inhibition was “inactive”. For O=C(N/N=C/C=C\c1ccco1)c1cccs1, the activity change, negative = inhibition was “inactive”. For O=C(NC(CC(=O)N1CCN(c2ccccc2O)CC1)c1ccccc1)c1ccccc1Cl (stereo unspecified), the activity change, negative = inhibition was inconclusive: 3.11%. For CC(=O)c1cccc(NC(=O)CSc2nc(=O)n(Cc3ccccn3)c3c2CCC3)c1, the activity change, negative = inhibition was inconclusive: 2.96%. In the case of COc1ccc2c(c1)c(C(C)=O)c(C)n2C, the activity change, negative = inhibition is reported as inconclusive: -1.44%. In the case of O=C(CSc1ccccn1)Nc1cccc(NC(=O)CSc2ccccn2)n1, the activity change, negative = inhibition is reported as inconclusive: 7.4%. In the case of Cc1cc(C(=O)CSc2nnc(C3COc4ccccc4O3)n2C)c(C)n1-c1ccc(F)cc1 (stereo unspecified), the activity change, negative = inhibition is reported as inconclusive: -5.21%. With COc1ccc(CC(=O)Nc2cccc(-c3ccc4nnc(C)n4n3)c2)cc1OC the activity change, negative = inhibition was inconclusive: -25.1%. With Cc1ccc(C)c2sc(N3CCN(C(=O)c4ccc([N+](=O)[O-])o4)CC3)nc12 the activity change, negative = inhibition was “inactive”. With Cc1ncc(C[n+]2csc(CCOC(=O)C34CC5CC(CC(C5)C3)C4)c2C)c(N)n1 the activity change, negative = inhibition was “inactive”. For CCCn1cnc2cc(NC(=O)c3cccs3)ccc21, the Potency was inconclusive: 5.62 µM [rising, partial curve]. With Cc1nc2sc3c(c2c2nnc(SCC(=O)NCc4ccco4)n12)CCCC3 the Potency was inconclusive: 9.2 µM [rising, partial curve, poor fit]. With O=C(c1ccco1)N1CCN(CC(=O)N2CCCc3c2c(=O)oc2ccc(O)cc32)CC1 the activity change, negative = inhibition was “inactive”. For O=C(COC(=O)CNC(=O)c1ccco1)Nc1ccccc1OC(F)F, the activity change, negative = inhibition was “inactive”. In the case of COc1ccc(S(=O)(=O)Nc2cccc3c2O[C@H](CN(C)Cc2ccc(Oc4ccccc4)cc2)[C@@H](C)CN([C@H](C)CO)C3=O)cc1, the activity change, negative = inhibition is reported as “inactive”. For O=[N+]([O-])c1ccc(O)c(CSc2nnnn2-c2ccccc2)c1, the activity change, negative = inhibition was “inactive”. In the case of COC(=O)c1ccc(NC(=O)c2c(NCc3ccc(OC)c(OC)c3)sc3c2CCCC3)cc1, the activity change, negative = inhibition is reported as inconclusive: 447%. With O=C(Nc1ccc2nsnc2c1)C1CC1 the Potency was inconclusive: 14.1 µM [falling, partial curve, poor fit]. With CCOc1ccccc1OCC(=O)NN1Cc2ccccc2C1=N the activity change, negative = inhibition was inconclusive: 9.57%. In the case of O=C(CSc1nc2cc([N+](=O)[O-])ccc2n1-c1ccccc1)NCc1ccc2c(c1)OCO2, the activity change, negative = inhibition is reported as inconclusive: 1.42%. In the case of COc1ccccc1N(CC(=O)NCCc1ccccc1)C(=O)CCC(=O)Nc1ccccn1, the activity change, negative = inhibition is reported as inconclusive: -6.88%. With O=C(O)c1ccc(Cl)c(S(=O)(=O)N(Cc2ccccc2)c2ccccc2)c1 the activity change, negative = inhibition was “inactive”. For Cc1ccc(S(=O)(=O)N2CCN(c3ccnc4cc(Cl)ccc34)CC2)cc1C, the activity change, negative = inhibition was “inactive”. With COc1ccc(C2=CC(=O)C[C@H](c3ccc(OC)c(OC)c3)C2)cc1 the activity change, negative = inhibition was inconclusive: -4.03%. With O=C1NC2=C(CCc3ccccc32)C(c2ccc(Br)cc2)N1 (stereo unspecified) the activity change, negative = inhibition was inconclusive: 19.8%. In the case of O=Cc1ccc(-c2cccc(C(=O)O)c2)o1, the activity change, negative = inhibition is reported as inconclusive: -11.1%. In the case of COc1ccc(N2CCN(CC(=O)NCc3ccc(Cl)cc3)CC2)cc1, the activity change, negative = inhibition is reported as “inactive”. With O=C(CSc1ccc2nnc(-c3ccccn3)n2n1)Nc1ccc(F)cc1F the activity change, negative = inhibition was “inactive”. For Cc1cc(C)n(-c2ccc(C(=O)N3CCN(S(=O)(=O)c4ccc(Cl)cc4)CC3)cc2)n1, the activity change, negative = inhibition was “inactive”. In the case of Cc1cccn2c(=O)c3cc(C(=O)N4CCCCC4)sc3nc12, the Potency is reported as inconclusive: 11.2 µM [falling, partial curve]. With C=CCn1c(-c2ccc(OC)c(OC)c2)n[nH]c1=S the activity change, negative = inhibition was “inactive”. With COc1ccc(N=C2C(=Nc3ccc(OC)cc3)N(c3ccc(N(C)C)cc3)C(=S)N2c2ccc(OC)cc2)cc1 the Potency was inconclusive: 0.082 µM [rising, full curve, poor fit]. In the case of COc1ccc(S(=O)(=O)N2CCN(C)CC2)cc1C, the activity change, negative = inhibition is reported as inconclusive: 11.8%. For O=C(COC(=O)/C=C/c1ccccc1[N+](=O)[O-])NNC(=O)c1ccc(F)cc1, the activity change, negative = inhibition was “inactive”. With CCOCCn1c(CN2CCN(c3ccc(F)cc3)CC2)nc2c1c(=O)n(C)c(=O)n2C the activity change, negative = inhibition was “inactive”. For C/C(=N\NC(=S)NC1CCCCC1)c1ccc(OC(F)F)cc1OC(F)F, the activity change, negative = inhibition was “inactive”. With CCOc1cc(NC(=S)NCC2CCCO2)c(OCC)cc1NC(=O)c1ccc(C)cc1 (stereo unspecified) the activity change, negative = inhibition was “inactive”. In the case of COc1ccc(/C=N/NC(=O)c2cc(O)c(O)c(O)c2)cc1Cn1cc([N+](=O)[O-])cn1, the Potency is reported as inconclusive: 35.5 µM [rising, single point]. In the case of COc1cccc(/C=C2\SC(=O)N(CCC(=O)N3CCCCC3CCO)C2=O)c1 (stereo unspecified), the Potency is reported as inconclusive: 35.5 µM [rising, single point]. In the case of CCOc1ccc(CCNC(=O)CN2C(=O)NC3(CCc4ccccc43)C2=O)cc1OCC (stereo unspecified), the activity change, negative = inhibition is reported as inconclusive: -0.519%. For O=C(CN1CC[n+]2c(-c3ccccc3)csc21)c1ccc(Br)cc1, the Potency was inconclusive: 3.16 µM [falling, partial curve, poor fit]. In the case of Cc1cccc(N/N=C2/COC(C)(C)CC2=O)c1, the activity change, negative = inhibition is reported as “inactive”. For COC(=O)CN1C(=S)N(c2ccc(Cl)cc2)C(=O)C1CC(=O)Nc1ccc(F)cc1 (stereo unspecified), the activity change, negative = inhibition was inconclusive: -6.85%. With Cc1oc2cc(Br)c(O)c(Br)c2c1-c1ccccc1 the activity change, negative = inhibition was inconclusive: 5.22%. In the case of Cc1nc(-c2ccc(NC(=O)c3ccc(Br)o3)cc2)cs1, the Potency is reported as inconclusive: 35.5 µM [falling, single point]. For O=C(Nc1ccc(O)c(C(=O)O)c1)Oc1ccccc1, the Potency was inconclusive: 22.4 µM [falling, partial curve]. For COc1ccc(N(CC(=O)Nc2cccc(C(C)=O)c2)S(=O)(=O)c2ccc(NC(C)=O)cc2)cc1, the activity change, negative = inhibition was inconclusive: 10.6%. With CCOC(=O)C(NC(=O)c1ccccc1)(N1CCOCC1)C(F)(F)F (stereo unspecified) the activity change, negative = inhibition was inconclusive: -10.4%. With COc1cccc(NC(=O)CSc2nncn2-c2ccccn2)c1 the activity change, negative = inhibition was inconclusive: -0.902%. With CCOC(=O)Cc1nnc(NC(=O)CSc2nnc3c(n2)[nH]c2ccccc23)s1 the Potency was inconclusive: 10 µM [falling, partial curve]. In the case of COc1ccccc1NC(=O)C(=O)NCC(c1ccco1)N1CCc2ccccc2C1 (stereo unspecified), the Potency is reported as inconclusive: 9.2 µM [falling, partial curve].
